Where two headings read alike, the source gives them in different places.

The term inhibition denotes the relative decrease from the control value, in per cent.

This assay concerns M. tuberculosis H37Rv-GFP. In words: microbe, parasite or virus in culture. Conditions: Mycobacterium tuberculosis, Macrophage. In kind it is cell-based.

Consider `COc1ccc(/C(C)=N\NC(=O)c2ccncc2)cc1` [IPK 000 219 29], for which the inhibition at 20 µM (read-out: Primary QIM % Inhibition) was found to be 107% and the inhibition at 20 µM (read-out: QIM Confirm % Inhibition 20 uM) was 67.6%.

For the origin of these results see patent publication US8785452B2, “Anti-infective compounds” (priority 2008, dated 2014).
